# Test results taken from PubChem BioAssay AID493014 (National Center for Advancing Translational Sciences (NCATS), 2011).
# The list shows a part of the results. These are further read-outs of the screen, such as a control signal, another cell line or another target. No call is given for them. Compounds called inactive in the main read-out are mostly missing here. Potencies come from curve fits of mixed quality, noted in brackets.
# Experiment: qHTS Assay to Find Inhibitors of Chronic Active B-Cell Receptor Signaling
# Details: ABC-DLBCL IkBa-CBG/CBR reporter, luminescence ratio (green luciferase fused to IkBa over red control in TMD8 lymphoma cells), 4 h
# Method in brief: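 Compounds up to 46 uM were incubated four hours with TMD8 cells whose green CBG68 luciferase is fused to IkappaBalpha; red CBR luminescence normalised the signal, and concentration-effect curves were fitted to fusion, red and ratio data.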
# [1] = measured here: CBR red luminescence, cell number
SMILES,AC50 [1],AC50 (measured here: IkBa-CBG green luminescence)
Cc1nc(N)nc(N/N=C/c2ccccc2)n1,"35.5 µM [falling, single point]",
O=C(NN=C1CCCC1)c1ccc(Br)cc1,"7.94 µM [falling, partial curve, poor fit]",
Cc1nc(CCN2C(=O)c3ccccc3C2=O)n[nH]1,"0.92 µM [falling, full curve, poor fit]",
Cc1ccc(C(=O)Oc2oc(-c3ccco3)nc2C=Nc2ccccc2)cc1,"14.1 µM [falling, partial curve]",
COc1ccc(CC(=O)Nc2c3c(nn2C(C)(C)C)CS(=O)C3)cc1 (centres undefined),"6.51 µM [falling, single point]",
CCCCN(C)S(=O)(=O)c1cc2c3c(c1)CCC(=O)N3CCC2,"3.55 µM [falling, partial curve, poor fit]",
CCn1c(C(=O)N2CCC(C(=O)NCCCSC3CCCCC3)CC2)cc2sccc21,"29.1 µM [falling, single point]",
C(=N\N(Cc1ccccc1)c1ccccc1)/c1cccnc1,"8.91 µM [falling, partial curve, poor fit]",
Cc1cccc(N2CCN(C(=O)c3ccc4[nH]c(C)c(C)c4c3)CC2)c1C,"29.1 µM [rising, single point]","29.1 µM [falling, single point]"
Cc1c(OCc2ccc(C(=O)O)cc2)ccc2c(-c3ccccc3)cc(=O)oc12,"7.08 µM [falling, partial curve, poor fit]",
Cn1c(=O)n(-c2cccc(Cl)c2)c(=O)c2c3c(sc21)COC(C)(C)C3,"0.631 µM [falling, partial curve, poor fit]",
C/C(=N\N=C(c1ccccc1)c1ccccc1)c1cccs1,"31.6 µM [rising, single point]",
Cc1ccc(Nc2nnc(SC3CCOC3=O)s2)cc1 (centres undefined),"18.4 µM [falling, single point]",
CC1=C(/C=C/C(C)=N\NC(=O)c2ccncc2)C(C)(C)CCC1,"11.2 µM [rising, partial curve, poor fit]",
CCOC(=O)c1cccc(Nc2ncnc3ccc(C)cc23)c1,"12.6 µM [falling, partial curve, poor fit]",
O=C(CCC1CCCC1)Nc1ccc([N+](=O)[O-])cn1,"3.66 µM [rising, full curve, poor fit]",
Cn1c(SCc2nc3ccccc3c(=O)[nH]2)nc2ccccc21,"11.2 µM [falling, single point]",

# An excerpt from above in order of formula weight, rising:
SMILES,AC50 [1],AC50 (measured here: IkBa-CBG green luminescence)
O=C(CCC1CCCC1)Nc1ccc([N+](=O)[O-])cn1,"3.66 µM [rising, full curve, poor fit]",
CCOC(=O)c1cccc(Nc2ncnc3ccc(C)cc23)c1,"12.6 µM [falling, partial curve, poor fit]",
Cc1c(OCc2ccc(C(=O)O)cc2)ccc2c(-c3ccccc3)cc(=O)oc12,"7.08 µM [falling, partial curve, poor fit]",

# Further entries follow.

SMILES,AC50 [1],AC50 (measured here: IkBa-CBG green luminescence)
CC(=O)N(c1ccccc1)C(C)c1nc(C#N)c(C#N)nc1C (centres undefined),"23.1 µM [falling, single point]",
Cc1cc(C)cc(NC(=O)Cc2ccc(-n3cccc3)cc2)c1,"4.61 µM [rising, single point]",
COC(=O)c1ccc(N2CCN(c3ccccc3)CC2)nc1,"2.51 µM [rising, full curve, poor fit]",
C=CCNC(=O)COc1ccc(S(=O)(=O)Nc2ccc(OCC)cc2)cc1,"4.11 µM [rising, full curve, poor fit]",
COc1ccccc1OCCn1c(=O)n(C)c2ccccc21,"22.4 µM [rising, single point]",
Cc1ccc2c(c1)C(=O)C(=O)N2CCCOc1ccccc1,"3.16 µM [rising, partial curve]",
O=C(CSc1n[nH]c(=O)[nH]c1=O)N/N=C/C=C/c1ccccc1,"15.8 µM [rising, single point]",
CN(Cc1c(C(=O)N/N=C/c2c(F)cccc2Cl)nnn1-c1nonc1N)c1ccccc1,"35.5 µM [falling, single point]",
COc1ccc(NC(=S)N2CCNC(=O)C2CC(=O)Nc2cccc(Cl)c2C)cc1 (centres undefined),"3.66 µM [rising, full curve, poor fit]",
Cc1cc(SCC(=O)NC2CC2)nc2ccccc12,"16.4 µM [rising, single point]",
O=C(OCn1nnc2ccccc2c1=O)c1cc2ccccc2o1,"5.01 µM [falling, full curve]",
CCN1C(c2ccccc2)=C(c2ccccc2)S/C1=C/C=C1\SC(=S)N(C)C1=O,"23.1 µM [rising, single point]",
CCCn1c(=O)c2[nH]c(-c3ccc(S(=O)(=O)O)cc3)nc2n(CCC)c1=O,"1.16 µM [falling, full curve]",
COc1ccc2nc(NC(=O)CCNS(=O)(=O)c3ccc4c(c3)oc(=O)n4C)sc2c1,"0.1 µM [falling, full curve, poor fit]",
CCc1ccc2[nH]c(C(=O)Nc3ccc(Br)c(C)n3)cc2c1,"0.447 µM [rising, full curve, poor fit]",
O=C(Nc1ccccc1F)c1ccc2c(c1)OCO2,"1.58 µM [falling, full curve]",
